{
  "source": "patent US20080161260A1",
  "about": "“Methods for Detecting and Quantifying Cell Proliferation In Vivo” (Wyeth, priority 2006, published 2008)",
  "test_system": "genomic DNA of hippocampus cells",
  "assay": "chemiluminescence BrdU ELISA of BrdU incorporation into hippocampal genomic DNA in vivo",
  "design": "species or system rat",
  "settings": "for amount of BrdU incorporated into hippocampal DNA (chemiluminescence): four ip. injections at two hour intervals on the same day",
  "method": "Male Sprague-Dawley rats (Charles River Laboratories, Inc., Wilmington, Mass.) weighing 200-225 g upon arrival into the animal facility were used in all studies described in this subsequent examples. The rats were housed in pairs, allowed access to food and water ad libitum, and maintained on a 12-h light-dark cycle, with lights on at 6 a.m. All injections were performed during the light cycle.\nFour different BrdU injection protocols were tested. Animals received ip. injections of 5-bromo-2-deoxyuridine (BrdU; Sigma, St. Louis, Mo., cat. no. B-5002) in saline (15 mg/ml) as follows:\n24 hours after the last BrdU injection, rats were euthanized with CO2. The brains were extracted and placed in freezing saline. One person sectioned the brain tissue on a brain block (1.5-2 mm coronal sections), and a second person prepared at least three 1.5 mm punches of the subgranular zone of the dentate gyrus of the hippocampus (see FIGS. 9A-9C) taken from each animal. Samples were frozen immediately on dry ice, and were stored at −80° C. until DNA extraction. […]\nCOSTAR® high binding 96 well plates (Corning Inc., Acton, Mass., cat. no. 3601) were coated with monoclonal anti-BrdU antibody (BD Biosciences, San Jose, Calif., cat. no. 347580) at a dilution of 1:100 (100 μl/well) in coating buffer (55 mM NaHCO3 buffer; ph 9.0) overnight at 4° C. on a shaker. […] The wells were then washed 3 times with 1×PBS on a shaker at room temperature, and the amount of anti-BrdU POD-conjugated Fab antibody fragments bound to BrdU DNA in each well was quantified by determining the chemiluminescence produced upon addition of BM Chemiluminescence ELISA Substrate (POD) (Roche Applied Science, cat. no: 1 582 950) to the wells, following the manufacturer's instructions, and using a standard luminometer. […]\nThe samples were analyzed by chemiluminescence BrdU ELISA essentially as described in Example 4. […]",
  "data": [
    {"compound": "O=c1[nH]c(=O)n([C@H]2C[C@H](O)[C@@H](CO)O2)cc1Br", "note": "[BrdU, 5-bromo-2′-deoxyuridine]", "values": [
      {"measurement": "amount of BrdU incorporated into hippocampal DNA (chemiluminescence)", "setting": "dosages greater than 100 mg/kg BrdU (150, 225 mg/kg)", "result": "does not increase further"},
      {"measurement": "amount of BrdU incorporated into hippocampal DNA (chemiluminescence)", "setting": "dosages of up to 100 mg/kg BrdU, whole hippocampus 24 h after last injection", "result": "dose-dependent"},
      {"measurement": "amount of BrdU incorporated into the DNA (chemiluminescence emitted)", "setting": "single daily ip. injections of 100 mg/kg BrdU on one, four or seven consecutive days, hippocampus punches", "result": "clearly increases as the number of days that BrdU is administered to the animals is increased from one to seven"}
    ]}
  ]
}
